Construct, isoform or probe ends are uncertain for at least one entry. Protein sequences can lack the tags named with them.
Biological target: T1, Alfin1 (Medicago sativa) (UniProt Q40359)
T1 sequence (looked up, limits assumed): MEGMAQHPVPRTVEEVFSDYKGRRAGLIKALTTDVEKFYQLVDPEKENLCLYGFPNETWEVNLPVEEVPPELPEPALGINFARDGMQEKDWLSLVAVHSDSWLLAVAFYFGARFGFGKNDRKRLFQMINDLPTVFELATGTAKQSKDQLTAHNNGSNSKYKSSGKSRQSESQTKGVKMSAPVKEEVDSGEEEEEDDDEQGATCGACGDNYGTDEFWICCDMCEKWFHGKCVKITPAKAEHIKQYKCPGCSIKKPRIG
Experiment: binding assay
Conditions: DNA sequence that binds Alfin1 in vitro; selection method not given; purified recombinant protein

Q: Does “GACGGCTGGGGGAAAGTGAGCGGTGGCCC (double strand) [Alfin1 binding sequence SEQ 3]” bind?
A: binds

Reference: patent US6936708, “Expression of Alfin 1 and methods for producing transgenic plants having increased root growth and root specific gene activation” (Arizona Board of Regents, acting for and on behalf of …)
